Measurements reported in PubChem BioAssay AID1259254 (NCATS, 2017)
Screen: 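Gene knock-downs that lead to re-replication, shown by excess G2 DNA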 (primary screen). Cell system: human HCT116 colorectal cancer cells. Reagents: single siRNA against human genes. Time to read-out: 3 days. Measurement: 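Nuclei stained with Hoechst and imaged; cell-cycle phase assigned by DNA content; G2 share scaled per plate, non-targeting siRNA 0%, GMNN siRNA 100%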. Scale: G2 robust z-score: higher = more G2 cells, more excess DNA replication. Rule for the call: 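Active siRNAs have a G2 robust z of 5 or more median absolute deviations over the median, which in these data means about 38% or higher of GMNN control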.
Here is an unselected part of about 59,000 reagents. Of all reagents, about 1,550 (2.6%) were called active. 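G2 share is only a proxy for re-replication; each gene was hit by three separate siRNAs, and active genes were retested.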 The numbers tell different reagents against one gene apart. Not all columns of the deposit are shown. The record does not give: the amount of reagent.

| target | siRNA no. | G2 robust z-score | activity call |
| --- | --- | --- | --- |
| FGF5 | 1 | 1.69 | inactive |
| FGF5 | 2 | 0.828 | inactive |
| FGF5 | 3 | -0.402 | inactive |
| C4orf46 | 1 | 0.221 | inactive |
| C4orf46 | 2 | -0.793 | inactive |
| C4orf46 | 3 | -0.688 | inactive |
| ARVCF | 1 | -0.203 | inactive |
| ARVCF | 2 | 0.378 | inactive |
| ARVCF | 3 | -1.43 | inactive |
| FN1 | 1 | -0.168 | inactive |
| FN1 | 2 | 2.35 | inactive |
| FN1 | 3 | 1.51 | inactive |
| SNCA-AS1 | 1 | 0.11 | inactive |
| SNCA-AS1 | 2 | 0.695 | inactive |
| SNCA-AS1 | 3 | 0.811 | inactive |
| GTF2H2B | 1 | 0.616 | inactive |
| GTF2H2B | 2 | 1.45 | inactive |
| GTF2H2B | 3 | -0.358 | inactive |

Ordered by “G2 robust z-score” (lowest first): 3 of the entries above.
| target | siRNA no. | G2 robust z-score | activity call |
| --- | --- | --- | --- |
| C4orf46 | 3 | -0.688 | inactive |
| ARVCF | 1 | -0.203 | inactive |
| ARVCF | 2 | 0.378 | inactive |

The listing continues.
| target | siRNA no. | G2 robust z-score | activity call |
| --- | --- | --- | --- |
| SUPT4H1 | 1 | 3.39 | inactive |
| SUPT4H1 | 2 | 0.256 | inactive |
| SUPT4H1 | 3 | 2.7 | inactive |
| KIF20A | 1 | -0.0294 | inactive |
| KIF20A | 2 | -0.207 | inactive |
| KIF20A | 3 | 0.461 | inactive |
| PAK6-AS1 | 1 | 3.19 | inactive |
| PAK6-AS1 | 2 | 0.795 | inactive |
| PAK6-AS1 | 3 | 0.666 | inactive |
| CDR2 | 1 | 1.29 | inactive |
| CDR2 | 2 | 2.3 | inactive |
| CDR2 | 3 | 0.275 | inactive |
